{"sequences": {"note": "Protein sequences, listed by entry. Tags and fused reporters are not part of them. Lines headed by an entry give the natural chain unless they say otherwise; changes in a name come on top.", "UniProt Q96N66": "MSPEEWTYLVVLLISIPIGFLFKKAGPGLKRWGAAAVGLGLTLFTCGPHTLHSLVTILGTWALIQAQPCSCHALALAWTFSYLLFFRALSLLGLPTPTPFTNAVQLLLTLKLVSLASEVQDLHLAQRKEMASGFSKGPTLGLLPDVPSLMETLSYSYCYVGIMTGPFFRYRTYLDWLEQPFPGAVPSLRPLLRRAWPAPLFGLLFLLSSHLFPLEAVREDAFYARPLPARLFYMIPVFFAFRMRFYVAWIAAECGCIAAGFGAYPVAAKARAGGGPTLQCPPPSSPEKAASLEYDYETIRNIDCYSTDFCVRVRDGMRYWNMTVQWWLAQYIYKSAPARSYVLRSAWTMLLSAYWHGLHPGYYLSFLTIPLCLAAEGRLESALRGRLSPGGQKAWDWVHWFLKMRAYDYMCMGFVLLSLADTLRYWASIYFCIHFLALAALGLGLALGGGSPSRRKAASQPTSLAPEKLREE", "UniProt Q9P2G4": "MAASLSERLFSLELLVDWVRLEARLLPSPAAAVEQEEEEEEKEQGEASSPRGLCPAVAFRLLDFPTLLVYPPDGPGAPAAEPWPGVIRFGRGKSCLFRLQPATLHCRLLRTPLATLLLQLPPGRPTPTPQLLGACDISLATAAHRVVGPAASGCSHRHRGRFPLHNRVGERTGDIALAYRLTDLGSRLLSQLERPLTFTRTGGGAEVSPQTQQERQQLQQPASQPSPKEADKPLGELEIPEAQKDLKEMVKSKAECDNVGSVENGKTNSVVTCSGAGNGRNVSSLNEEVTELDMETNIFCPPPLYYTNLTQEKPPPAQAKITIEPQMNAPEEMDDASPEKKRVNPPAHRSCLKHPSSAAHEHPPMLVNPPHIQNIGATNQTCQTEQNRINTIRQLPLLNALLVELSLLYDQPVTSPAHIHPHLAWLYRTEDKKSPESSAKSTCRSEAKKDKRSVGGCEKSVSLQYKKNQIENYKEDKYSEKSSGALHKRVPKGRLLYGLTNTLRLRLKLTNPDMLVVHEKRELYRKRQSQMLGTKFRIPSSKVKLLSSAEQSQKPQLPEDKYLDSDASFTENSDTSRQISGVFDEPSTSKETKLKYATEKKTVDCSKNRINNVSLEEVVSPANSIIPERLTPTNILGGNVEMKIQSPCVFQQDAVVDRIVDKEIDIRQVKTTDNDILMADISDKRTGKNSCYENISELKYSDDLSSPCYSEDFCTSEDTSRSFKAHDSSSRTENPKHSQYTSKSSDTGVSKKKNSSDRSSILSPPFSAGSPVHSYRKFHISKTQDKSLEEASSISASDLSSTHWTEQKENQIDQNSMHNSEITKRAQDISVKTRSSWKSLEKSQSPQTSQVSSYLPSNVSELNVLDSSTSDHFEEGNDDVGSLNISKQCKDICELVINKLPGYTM", "UniProt Q96GW9": "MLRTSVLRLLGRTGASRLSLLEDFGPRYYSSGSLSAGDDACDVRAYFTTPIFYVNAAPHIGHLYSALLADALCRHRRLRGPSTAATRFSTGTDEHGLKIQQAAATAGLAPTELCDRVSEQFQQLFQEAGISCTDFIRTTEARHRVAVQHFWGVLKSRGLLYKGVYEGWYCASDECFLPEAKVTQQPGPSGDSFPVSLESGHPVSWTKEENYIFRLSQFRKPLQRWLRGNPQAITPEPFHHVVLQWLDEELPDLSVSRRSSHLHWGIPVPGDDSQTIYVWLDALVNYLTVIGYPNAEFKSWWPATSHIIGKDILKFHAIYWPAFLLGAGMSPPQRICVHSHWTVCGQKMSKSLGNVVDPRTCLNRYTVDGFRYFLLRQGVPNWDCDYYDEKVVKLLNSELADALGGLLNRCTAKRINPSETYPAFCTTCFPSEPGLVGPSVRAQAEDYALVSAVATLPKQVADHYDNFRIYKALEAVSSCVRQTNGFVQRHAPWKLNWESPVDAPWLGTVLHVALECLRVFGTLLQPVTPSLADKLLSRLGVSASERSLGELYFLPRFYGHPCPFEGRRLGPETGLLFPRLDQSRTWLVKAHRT", "UniProt Q9Y2U5": "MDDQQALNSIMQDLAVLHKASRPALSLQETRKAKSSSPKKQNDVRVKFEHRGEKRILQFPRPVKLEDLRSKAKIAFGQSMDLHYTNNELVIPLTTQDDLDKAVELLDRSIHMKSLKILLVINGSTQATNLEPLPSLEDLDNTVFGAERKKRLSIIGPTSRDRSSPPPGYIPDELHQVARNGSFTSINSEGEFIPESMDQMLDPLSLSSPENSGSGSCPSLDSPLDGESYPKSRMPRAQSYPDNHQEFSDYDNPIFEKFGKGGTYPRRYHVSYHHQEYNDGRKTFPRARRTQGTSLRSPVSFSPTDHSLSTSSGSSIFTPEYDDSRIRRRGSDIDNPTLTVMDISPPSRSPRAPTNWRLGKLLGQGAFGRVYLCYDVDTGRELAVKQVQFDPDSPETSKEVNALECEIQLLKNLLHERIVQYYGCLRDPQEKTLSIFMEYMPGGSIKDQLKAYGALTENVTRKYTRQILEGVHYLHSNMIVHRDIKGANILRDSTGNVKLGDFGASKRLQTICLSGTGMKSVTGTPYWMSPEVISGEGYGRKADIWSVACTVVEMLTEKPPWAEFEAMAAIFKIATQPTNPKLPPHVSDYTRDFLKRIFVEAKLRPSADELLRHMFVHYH", "UniProt Q9Y6R4": "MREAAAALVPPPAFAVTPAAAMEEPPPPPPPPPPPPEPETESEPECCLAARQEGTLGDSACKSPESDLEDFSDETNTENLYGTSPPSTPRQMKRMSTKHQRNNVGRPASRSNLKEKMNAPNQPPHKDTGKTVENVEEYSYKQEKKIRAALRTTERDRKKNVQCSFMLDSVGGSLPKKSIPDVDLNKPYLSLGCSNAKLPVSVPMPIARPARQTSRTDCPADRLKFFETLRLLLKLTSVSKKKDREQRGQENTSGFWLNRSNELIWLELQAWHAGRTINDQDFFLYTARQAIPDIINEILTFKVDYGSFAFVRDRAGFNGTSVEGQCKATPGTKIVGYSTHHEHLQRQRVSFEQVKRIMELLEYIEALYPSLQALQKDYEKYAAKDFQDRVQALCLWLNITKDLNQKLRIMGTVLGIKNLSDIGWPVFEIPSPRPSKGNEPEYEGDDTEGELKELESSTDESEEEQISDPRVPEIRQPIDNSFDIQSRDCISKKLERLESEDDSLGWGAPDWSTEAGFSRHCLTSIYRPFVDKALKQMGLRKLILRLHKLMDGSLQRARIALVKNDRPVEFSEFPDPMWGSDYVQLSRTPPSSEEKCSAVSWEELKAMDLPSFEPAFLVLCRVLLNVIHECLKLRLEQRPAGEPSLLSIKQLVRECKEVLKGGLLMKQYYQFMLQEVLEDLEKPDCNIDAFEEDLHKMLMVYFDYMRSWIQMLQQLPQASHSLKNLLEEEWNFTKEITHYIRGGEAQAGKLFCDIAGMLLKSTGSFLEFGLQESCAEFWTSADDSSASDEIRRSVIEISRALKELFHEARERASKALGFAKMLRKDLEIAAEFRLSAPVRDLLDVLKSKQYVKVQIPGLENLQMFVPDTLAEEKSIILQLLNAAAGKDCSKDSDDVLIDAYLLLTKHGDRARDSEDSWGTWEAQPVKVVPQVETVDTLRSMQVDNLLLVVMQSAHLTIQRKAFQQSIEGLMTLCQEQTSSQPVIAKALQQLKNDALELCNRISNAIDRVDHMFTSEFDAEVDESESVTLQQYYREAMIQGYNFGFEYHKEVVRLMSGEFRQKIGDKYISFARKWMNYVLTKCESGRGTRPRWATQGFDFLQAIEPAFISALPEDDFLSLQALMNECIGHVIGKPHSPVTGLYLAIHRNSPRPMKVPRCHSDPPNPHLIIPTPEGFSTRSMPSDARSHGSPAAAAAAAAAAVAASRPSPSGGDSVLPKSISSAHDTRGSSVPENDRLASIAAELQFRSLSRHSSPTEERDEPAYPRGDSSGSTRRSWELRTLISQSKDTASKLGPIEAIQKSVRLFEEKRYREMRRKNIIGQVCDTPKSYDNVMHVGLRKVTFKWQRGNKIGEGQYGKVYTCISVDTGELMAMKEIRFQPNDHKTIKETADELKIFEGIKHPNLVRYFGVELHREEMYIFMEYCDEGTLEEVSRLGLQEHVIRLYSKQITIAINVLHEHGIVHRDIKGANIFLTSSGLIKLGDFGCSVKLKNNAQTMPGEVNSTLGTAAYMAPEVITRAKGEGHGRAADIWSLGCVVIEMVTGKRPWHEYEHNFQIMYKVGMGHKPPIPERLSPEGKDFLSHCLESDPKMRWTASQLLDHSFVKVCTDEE", "UniProt Q8IV50": "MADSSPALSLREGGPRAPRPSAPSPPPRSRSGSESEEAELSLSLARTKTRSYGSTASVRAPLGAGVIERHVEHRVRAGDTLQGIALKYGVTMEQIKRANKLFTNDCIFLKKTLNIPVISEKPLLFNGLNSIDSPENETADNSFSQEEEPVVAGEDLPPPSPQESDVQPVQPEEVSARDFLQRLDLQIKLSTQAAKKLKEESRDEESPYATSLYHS", "UniProt Q9UBB5, whole entry, looked up": "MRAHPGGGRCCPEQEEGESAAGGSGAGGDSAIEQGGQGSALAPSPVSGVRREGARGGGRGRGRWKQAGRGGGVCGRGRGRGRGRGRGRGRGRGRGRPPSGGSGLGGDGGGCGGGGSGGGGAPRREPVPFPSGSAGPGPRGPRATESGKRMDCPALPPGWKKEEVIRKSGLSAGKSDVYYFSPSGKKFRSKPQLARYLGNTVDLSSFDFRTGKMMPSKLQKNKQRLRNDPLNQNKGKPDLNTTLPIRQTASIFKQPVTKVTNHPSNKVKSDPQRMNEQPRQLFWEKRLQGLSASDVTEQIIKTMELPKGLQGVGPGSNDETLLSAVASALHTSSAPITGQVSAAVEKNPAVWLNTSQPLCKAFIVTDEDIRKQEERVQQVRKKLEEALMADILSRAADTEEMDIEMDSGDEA", "UniProt Q7L5Y9": "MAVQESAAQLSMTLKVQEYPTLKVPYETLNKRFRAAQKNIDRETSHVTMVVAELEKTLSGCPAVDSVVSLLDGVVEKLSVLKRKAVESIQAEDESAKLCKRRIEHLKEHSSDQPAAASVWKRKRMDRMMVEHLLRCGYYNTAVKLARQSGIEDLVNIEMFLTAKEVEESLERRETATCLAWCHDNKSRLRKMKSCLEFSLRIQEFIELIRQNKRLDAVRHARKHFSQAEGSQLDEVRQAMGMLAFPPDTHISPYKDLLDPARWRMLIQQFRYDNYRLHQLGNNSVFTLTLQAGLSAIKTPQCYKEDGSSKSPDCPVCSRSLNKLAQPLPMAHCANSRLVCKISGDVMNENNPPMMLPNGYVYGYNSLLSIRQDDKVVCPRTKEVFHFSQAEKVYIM", "UniProt P45983": "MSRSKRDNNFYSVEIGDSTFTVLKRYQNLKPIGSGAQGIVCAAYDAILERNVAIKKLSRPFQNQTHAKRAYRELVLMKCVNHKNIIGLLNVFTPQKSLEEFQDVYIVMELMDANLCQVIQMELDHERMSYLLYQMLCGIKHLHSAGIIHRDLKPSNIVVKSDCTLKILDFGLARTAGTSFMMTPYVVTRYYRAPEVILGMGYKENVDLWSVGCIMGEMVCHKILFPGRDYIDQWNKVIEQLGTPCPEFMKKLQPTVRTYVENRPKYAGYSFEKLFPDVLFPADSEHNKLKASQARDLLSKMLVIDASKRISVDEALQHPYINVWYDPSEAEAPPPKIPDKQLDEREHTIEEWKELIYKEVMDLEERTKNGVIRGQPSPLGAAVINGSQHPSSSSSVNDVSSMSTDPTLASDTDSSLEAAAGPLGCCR", "UniProt Q92918, whole entry, looked up": "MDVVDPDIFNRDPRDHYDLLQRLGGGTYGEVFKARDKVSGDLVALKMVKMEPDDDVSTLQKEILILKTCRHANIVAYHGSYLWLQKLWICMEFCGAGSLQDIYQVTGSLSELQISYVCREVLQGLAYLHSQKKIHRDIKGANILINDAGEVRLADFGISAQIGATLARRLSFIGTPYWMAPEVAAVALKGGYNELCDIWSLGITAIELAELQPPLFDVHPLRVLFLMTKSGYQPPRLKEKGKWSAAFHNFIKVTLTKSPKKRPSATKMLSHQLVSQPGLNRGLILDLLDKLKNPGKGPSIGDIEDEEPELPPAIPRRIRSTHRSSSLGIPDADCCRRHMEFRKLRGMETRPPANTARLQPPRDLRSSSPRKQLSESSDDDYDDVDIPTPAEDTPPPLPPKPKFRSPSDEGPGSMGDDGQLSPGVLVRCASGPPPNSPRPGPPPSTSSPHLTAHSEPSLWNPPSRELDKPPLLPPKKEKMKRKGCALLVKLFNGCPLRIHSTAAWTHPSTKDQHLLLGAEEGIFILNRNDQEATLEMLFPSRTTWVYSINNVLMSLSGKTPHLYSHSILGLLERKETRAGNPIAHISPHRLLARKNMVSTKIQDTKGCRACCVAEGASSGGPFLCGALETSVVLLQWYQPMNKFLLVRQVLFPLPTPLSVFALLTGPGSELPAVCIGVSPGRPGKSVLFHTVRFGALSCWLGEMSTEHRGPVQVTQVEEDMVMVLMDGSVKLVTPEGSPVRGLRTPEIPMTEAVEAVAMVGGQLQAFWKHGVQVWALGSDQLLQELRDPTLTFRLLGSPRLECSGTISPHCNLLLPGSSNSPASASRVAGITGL"}, "source": "the supplement of paper PMC12067093", "about": "“Discovery and optimisation of a covalent ligand for TRIM25 and its application to targeted protein ubiquitination” (Chemical Science, 2025)", "note": "The other results are listed elsewhere or left out.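 Also: competitive profiling in live THP-1 cells: cysteine peptides tagged with an iodoacetamide desthiobiotin (IA-DTB) probe, intensity after compound treatment relative to DMSO-treated cells.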"}
{"compound": "Cc1cc(ccc1-c1ccccc1)C(=O)N1CCCN(CC1)C(=O)CCl [compound 10]", "experiment": "probe-labelled cysteine peptide fold change vs DMSO (competition) (log2 fold change); higher = less target engagement (more negative = stronger competition)", "conditions": "10 µM; THP-1; incubation time: 4 h"}
{"target": "MBOAT7_Q96N66_304_NIDCYSTDFCVR (UniProt Q96N66)", "probe-labelled cysteine peptide fold change": 0.139}
{"target": "MACF1_Q9UPN3_4206_FEQLCLQQQEK (UniProt Q9UPN3)", "probe-labelled cysteine peptide fold change": 0.151}
{"target": "MACF1_Q9UPN3_2629_EGLLTNEAVLSPGMMHGIVDPENCR (UniProt Q9UPN3)", "probe-labelled cysteine peptide fold change": 0.115}
{"target": "MAP10_Q9P2G4_648_IQSPCVFQQDAVVDR (UniProt Q9P2G4)", "probe-labelled cysteine peptide fold change": -0.226}
{"target": "MARS2_Q96GW9_336_ICVHSHWTVCGQK (UniProt Q96GW9)", "probe-labelled cysteine peptide fold change": -0.0929}
{"target": "LY75_O60449_110_CEHHSLYGAAR (UniProt O60449)", "probe-labelled cysteine peptide fold change": 0.109}
{"target": "LYST_Q99698_2127_LTGSLGCSIDR (UniProt Q99698)", "probe-labelled cysteine peptide fold change": -0.208}
{"target": "MARS_P56192_408_FVEGVCPFCGYEEARGDQCDK (UniProt P56192)", "probe-labelled cysteine peptide fold change": 0.00779}
{"target": "MAP3K2_Q9Y2U5_512_LQTICLSGTGMK (UniProt Q9Y2U5)", "probe-labelled cysteine peptide fold change": -0.0533}
{"target": "MAPK9_P45984_222_GCVIFQGTDHIDQWNK (UniProt P45984)", "probe-labelled cysteine peptide fold change": -0.0703}
{"target": "MAP3K4_Q9Y6R4-2_1157_CHSDPPNPHLIIPTPEGFR (UniProt Q9Y6R4)", "probe-labelled cysteine peptide fold change": -0.298}
{"target": "LYSMD2_Q8IV50_106_LFTNDCIFLK (UniProt Q8IV50)", "probe-labelled cysteine peptide fold change": -0.192}
{"target": "MAP1S_Q66K74_435+440_VLFPGCTPPACLLDGLVR (UniProt Q66K74)", "probe-labelled cysteine peptide fold change": -0.0708}
{"target": "MBTD1_Q05BQ5_78_FCSVSCSR (UniProt Q05BQ5)", "probe-labelled cysteine peptide fold change": -0.26}
{"target": "MACF1_Q9UPN3_4581_QLEESASHLACFQAAESQLRPWLMEK (UniProt Q9UPN3)", "probe-labelled cysteine peptide fold change": -0.037}
{"target": "MBD4_O95243_324_SLSSGSNFCSEQK (UniProt O95243)", "probe-labelled cysteine peptide fold change": 0.259}
{"target": "LYAR_Q9NX58_6+9_VFFTCNACGESVKK (UniProt Q9NX58)", "probe-labelled cysteine peptide fold change": -0.147}
{"target": "MAN2A1_Q16706_840_IYSEVTCFFDHVTHR (UniProt Q16706)", "probe-labelled cysteine peptide fold change": 0.14}
{"target": "LY75_O60449_150_KGGSEESLCDQPYHEIYTR (UniProt O60449)", "probe-labelled cysteine peptide fold change": -0.0718}
{"target": "LYAR_Q9NX58_36_NCECLSCIDCGK (UniProt Q9NX58)", "probe-labelled cysteine peptide fold change": 0.105}
{"target": "MBD2_Q9UBB5_111_GRPPSGGSGLGGDGGGCGGGGSGGGGAPR (UniProt Q9UBB5)", "probe-labelled cysteine peptide fold change": -0.142}
{"target": "MBD4_O95243_549_IFCVNEWK (UniProt O95243)", "probe-labelled cysteine peptide fold change": 0.00198}
{"target": "MACF1_Q9UPN3_1806_HNLIDQDMACAILIR (UniProt Q9UPN3)", "probe-labelled cysteine peptide fold change": 0.133}
{"target": "MAEA_Q7L5Y9_314+317_SPDCPVCSR (UniProt Q7L5Y9)", "probe-labelled cysteine peptide fold change": -0.155}
{"target": "MAPK14_Q16539_162_PSNLAVNEDCELK (UniProt Q16539)", "probe-labelled cysteine peptide fold change": -0.127}
{"target": "MAPK8_P45983_41_YQNLKPIGSGAQGIVCAAYDAILER (UniProt P45983)", "probe-labelled cysteine peptide fold change": 0.0285}
{"target": "MAP1S_Q66K74_738+743_SASPHDVDLCLVSPCEFEHR (UniProt Q66K74)", "probe-labelled cysteine peptide fold change": -0.547}
{"target": "LY75_O60449_1060_IPENFFEEESRYHCALILNLQK (UniProt O60449)", "probe-labelled cysteine peptide fold change": -0.177}
{"target": "MAP2K6_P52564_216_TIDAGCK (UniProt P52564)", "probe-labelled cysteine peptide fold change": -0.048}
{"target": "MAD2L1_Q13257_106_WQFDIECDK (UniProt Q13257)", "probe-labelled cysteine peptide fold change": -0.0343}
{"target": "LYST_Q99698_3701_LWTVNGDLVGHVHCR (UniProt Q99698)", "probe-labelled cysteine peptide fold change": 0.112}
{"target": "LYST_Q99698_808_DLFLSCNGVSQIIELNCLNGIR (UniProt Q99698)", "probe-labelled cysteine peptide fold change": -0.303}
{"target": "MCCC2_Q9HCC0_267_AATGEEVSAEDLGGADLHCR (UniProt Q9HCC0)", "probe-labelled cysteine peptide fold change": -0.421}
{"target": "LUC7L3_O95232_40+43_YYLCGFCPAELFTNTR (UniProt O95232)", "probe-labelled cysteine peptide fold change": 0.232}
{"target": "MAP4K1_Q92918_335_SSSLGIPDADCCR (UniProt Q92918)", "probe-labelled cysteine peptide fold change": -0.294}
{"compound": "Cc1cc(ccc1-c1ccccc1)C(=O)N1CCCN(CC1)C(=O)CCl [compound 10]", "experiment": "probe-labelled cysteine peptide fold change vs DMSO (competition) (log2 fold change); higher = less target engagement (more negative = stronger competition)", "conditions": "50 µM; THP-1; incubation time: 4 h"}
{"target": "MBOAT7_Q96N66_304_NIDCYSTDFCVR (UniProt Q96N66)", "probe-labelled cysteine peptide fold change": 0.0315}
{"target": "MACF1_Q9UPN3_4206_FEQLCLQQQEK (UniProt Q9UPN3)", "probe-labelled cysteine peptide fold change": 0.0747}
{"target": "MACF1_Q9UPN3_2629_EGLLTNEAVLSPGMMHGIVDPENCR (UniProt Q9UPN3)", "probe-labelled cysteine peptide fold change": 0.195}
{"target": "MAP10_Q9P2G4_648_IQSPCVFQQDAVVDR (UniProt Q9P2G4)", "probe-labelled cysteine peptide fold change": -0.182}
{"target": "MARS2_Q96GW9_336_ICVHSHWTVCGQK (UniProt Q96GW9)", "probe-labelled cysteine peptide fold change": -0.174}
{"target": "LY75_O60449_110_CEHHSLYGAAR (UniProt O60449)", "probe-labelled cysteine peptide fold change": 0.155}
{"target": "LYST_Q99698_2127_LTGSLGCSIDR (UniProt Q99698)", "probe-labelled cysteine peptide fold change": -0.142}
{"target": "MARS_P56192_408_FVEGVCPFCGYEEARGDQCDK (UniProt P56192)", "probe-labelled cysteine peptide fold change": -0.212}
{"target": "MAP3K2_Q9Y2U5_512_LQTICLSGTGMK (UniProt Q9Y2U5)", "probe-labelled cysteine peptide fold change": 0.105}
{"target": "MAPK9_P45984_222_GCVIFQGTDHIDQWNK (UniProt P45984)", "probe-labelled cysteine peptide fold change": 0.0724}
{"target": "MAP3K4_Q9Y6R4-2_1157_CHSDPPNPHLIIPTPEGFR (UniProt Q9Y6R4)", "probe-labelled cysteine peptide fold change": -0.553}
{"target": "LYSMD2_Q8IV50_106_LFTNDCIFLK (UniProt Q8IV50)", "probe-labelled cysteine peptide fold change": -1.77}
{"target": "MAP1S_Q66K74_435+440_VLFPGCTPPACLLDGLVR (UniProt Q66K74)", "probe-labelled cysteine peptide fold change": -0.133}
{"target": "MBTD1_Q05BQ5_78_FCSVSCSR (UniProt Q05BQ5)", "probe-labelled cysteine peptide fold change": -0.423}
{"target": "MACF1_Q9UPN3_4581_QLEESASHLACFQAAESQLRPWLMEK (UniProt Q9UPN3)", "probe-labelled cysteine peptide fold change": -0.201}
{"target": "MBD4_O95243_324_SLSSGSNFCSEQK (UniProt O95243)", "probe-labelled cysteine peptide fold change": -0.0568}
{"target": "LYAR_Q9NX58_6+9_VFFTCNACGESVKK (UniProt Q9NX58)", "probe-labelled cysteine peptide fold change": -0.92}
{"target": "MAN2A1_Q16706_840_IYSEVTCFFDHVTHR (UniProt Q16706)", "probe-labelled cysteine peptide fold change": 0.295}
{"target": "LY75_O60449_150_KGGSEESLCDQPYHEIYTR (UniProt O60449)", "probe-labelled cysteine peptide fold change": -0.174}
{"target": "LYAR_Q9NX58_36_NCECLSCIDCGK (UniProt Q9NX58)", "probe-labelled cysteine peptide fold change": 0.0594}
{"target": "MBD2_Q9UBB5_111_GRPPSGGSGLGGDGGGCGGGGSGGGGAPR (UniProt Q9UBB5)", "probe-labelled cysteine peptide fold change": -1.1}
{"target": "MBD4_O95243_549_IFCVNEWK (UniProt O95243)", "probe-labelled cysteine peptide fold change": -0.0746}
{"target": "MACF1_Q9UPN3_1806_HNLIDQDMACAILIR (UniProt Q9UPN3)", "probe-labelled cysteine peptide fold change": 0.288}
{"target": "MAEA_Q7L5Y9_314+317_SPDCPVCSR (UniProt Q7L5Y9)", "probe-labelled cysteine peptide fold change": -0.514}
{"target": "MAPK14_Q16539_162_PSNLAVNEDCELK (UniProt Q16539)", "probe-labelled cysteine peptide fold change": 0.34}
{"target": "MAPK8_P45983_41_YQNLKPIGSGAQGIVCAAYDAILER (UniProt P45983)", "probe-labelled cysteine peptide fold change": 0.101}
{"target": "MAP1S_Q66K74_738+743_SASPHDVDLCLVSPCEFEHR (UniProt Q66K74)", "probe-labelled cysteine peptide fold change": -0.135}
{"target": "LY75_O60449_1060_IPENFFEEESRYHCALILNLQK (UniProt O60449)", "probe-labelled cysteine peptide fold change": -0.421}
{"target": "MAP2K6_P52564_216_TIDAGCK (UniProt P52564)", "probe-labelled cysteine peptide fold change": 0.239}
{"target": "MAD2L1_Q13257_106_WQFDIECDK (UniProt Q13257)", "probe-labelled cysteine peptide fold change": 0.171}
{"target": "LYST_Q99698_3701_LWTVNGDLVGHVHCR (UniProt Q99698)", "probe-labelled cysteine peptide fold change": 0.224}
{"target": "LYST_Q99698_808_DLFLSCNGVSQIIELNCLNGIR (UniProt Q99698)", "probe-labelled cysteine peptide fold change": -0.285}
{"target": "MCCC2_Q9HCC0_267_AATGEEVSAEDLGGADLHCR (UniProt Q9HCC0)", "probe-labelled cysteine peptide fold change": -1.1}
{"target": "LUC7L3_O95232_40+43_YYLCGFCPAELFTNTR (UniProt O95232)", "probe-labelled cysteine peptide fold change": -0.733}
{"target": "MAP4K1_Q92918_335_SSSLGIPDADCCR (UniProt Q92918)", "probe-labelled cysteine peptide fold change": -1.09}
